Source: PMC11166204, “Mapping the global interactome of the ARF family reveals spatial organization in cellular signaling pathways” (Journal of Cell Science, 2024)

Amino acid sequences for entries named in this document (tags omitted). A change or cut given only in a name is not applied to a line headed by its entry. Residues count along the entry.
UniProt Q9Y6B6: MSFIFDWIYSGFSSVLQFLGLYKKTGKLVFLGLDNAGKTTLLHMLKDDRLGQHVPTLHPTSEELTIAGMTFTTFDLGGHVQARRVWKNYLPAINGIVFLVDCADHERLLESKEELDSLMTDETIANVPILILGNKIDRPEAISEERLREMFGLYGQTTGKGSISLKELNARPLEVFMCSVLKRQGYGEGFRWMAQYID
UniProt P84077: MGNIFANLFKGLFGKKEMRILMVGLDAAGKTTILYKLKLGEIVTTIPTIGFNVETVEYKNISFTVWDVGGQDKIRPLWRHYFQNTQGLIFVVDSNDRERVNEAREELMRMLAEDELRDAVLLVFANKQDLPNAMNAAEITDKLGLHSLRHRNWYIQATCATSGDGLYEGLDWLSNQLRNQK
UniProt Q13596: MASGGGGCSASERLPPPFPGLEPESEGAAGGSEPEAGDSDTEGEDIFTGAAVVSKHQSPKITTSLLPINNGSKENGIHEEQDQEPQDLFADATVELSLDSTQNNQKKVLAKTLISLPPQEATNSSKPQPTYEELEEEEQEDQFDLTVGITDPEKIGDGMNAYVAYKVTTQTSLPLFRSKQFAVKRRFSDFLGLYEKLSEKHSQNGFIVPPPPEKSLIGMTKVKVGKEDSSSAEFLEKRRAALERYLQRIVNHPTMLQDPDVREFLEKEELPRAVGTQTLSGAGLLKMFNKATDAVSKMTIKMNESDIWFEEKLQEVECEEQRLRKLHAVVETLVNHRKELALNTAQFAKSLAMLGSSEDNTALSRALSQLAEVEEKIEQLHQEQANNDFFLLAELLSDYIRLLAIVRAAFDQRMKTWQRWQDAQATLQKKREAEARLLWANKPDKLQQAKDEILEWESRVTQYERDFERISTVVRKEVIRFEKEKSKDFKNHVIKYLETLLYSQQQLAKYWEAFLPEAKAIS
UniProt Q5JRA6, residues 23-1907: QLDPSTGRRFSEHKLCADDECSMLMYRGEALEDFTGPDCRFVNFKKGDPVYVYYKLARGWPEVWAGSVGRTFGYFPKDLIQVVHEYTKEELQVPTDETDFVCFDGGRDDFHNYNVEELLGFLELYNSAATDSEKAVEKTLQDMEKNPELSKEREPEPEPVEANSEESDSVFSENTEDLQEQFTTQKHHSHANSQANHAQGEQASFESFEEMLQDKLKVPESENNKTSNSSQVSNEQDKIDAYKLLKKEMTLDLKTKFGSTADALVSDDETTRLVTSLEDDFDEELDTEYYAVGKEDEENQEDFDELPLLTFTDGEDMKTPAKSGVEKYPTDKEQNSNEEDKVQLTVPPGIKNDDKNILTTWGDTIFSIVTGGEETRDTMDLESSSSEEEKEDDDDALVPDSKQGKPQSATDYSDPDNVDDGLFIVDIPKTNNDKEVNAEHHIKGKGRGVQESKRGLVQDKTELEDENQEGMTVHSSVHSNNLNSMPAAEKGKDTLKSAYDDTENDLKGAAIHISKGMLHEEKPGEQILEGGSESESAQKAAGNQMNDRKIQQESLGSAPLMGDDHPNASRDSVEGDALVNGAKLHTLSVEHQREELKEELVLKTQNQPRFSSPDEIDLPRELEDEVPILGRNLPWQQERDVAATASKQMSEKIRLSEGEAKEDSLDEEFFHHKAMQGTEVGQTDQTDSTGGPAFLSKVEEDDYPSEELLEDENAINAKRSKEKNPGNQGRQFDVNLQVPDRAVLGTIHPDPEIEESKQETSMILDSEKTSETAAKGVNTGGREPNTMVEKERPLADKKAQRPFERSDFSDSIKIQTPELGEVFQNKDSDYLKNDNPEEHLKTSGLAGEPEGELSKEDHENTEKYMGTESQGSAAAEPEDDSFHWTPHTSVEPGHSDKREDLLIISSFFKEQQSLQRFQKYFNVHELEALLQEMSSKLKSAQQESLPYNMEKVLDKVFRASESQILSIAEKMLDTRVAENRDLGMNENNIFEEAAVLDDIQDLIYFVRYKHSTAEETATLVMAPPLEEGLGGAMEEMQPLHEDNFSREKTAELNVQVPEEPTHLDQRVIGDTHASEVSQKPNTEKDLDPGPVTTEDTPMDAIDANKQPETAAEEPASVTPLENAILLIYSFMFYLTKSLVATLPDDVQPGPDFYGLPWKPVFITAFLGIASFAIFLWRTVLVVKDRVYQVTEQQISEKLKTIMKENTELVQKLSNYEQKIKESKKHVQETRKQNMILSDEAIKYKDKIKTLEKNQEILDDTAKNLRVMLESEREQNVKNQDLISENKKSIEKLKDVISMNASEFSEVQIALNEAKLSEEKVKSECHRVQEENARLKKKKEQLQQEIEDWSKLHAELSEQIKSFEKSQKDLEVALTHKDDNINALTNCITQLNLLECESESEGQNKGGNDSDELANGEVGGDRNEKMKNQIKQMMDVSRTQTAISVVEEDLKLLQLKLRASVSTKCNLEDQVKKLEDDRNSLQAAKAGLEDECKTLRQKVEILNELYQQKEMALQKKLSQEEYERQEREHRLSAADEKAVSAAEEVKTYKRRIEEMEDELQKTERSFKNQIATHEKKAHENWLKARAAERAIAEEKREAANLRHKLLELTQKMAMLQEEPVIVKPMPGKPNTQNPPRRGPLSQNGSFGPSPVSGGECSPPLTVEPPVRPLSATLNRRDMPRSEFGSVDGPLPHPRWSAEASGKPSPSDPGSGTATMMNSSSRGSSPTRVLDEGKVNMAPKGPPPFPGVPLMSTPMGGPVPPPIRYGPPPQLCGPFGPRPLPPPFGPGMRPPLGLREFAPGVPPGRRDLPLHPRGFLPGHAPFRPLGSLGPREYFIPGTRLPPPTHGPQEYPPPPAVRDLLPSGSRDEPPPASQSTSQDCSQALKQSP

T1: constitutively active ARL14 (Q68L)–BirA*–Flag (human) (UniProt Q8N4G2)
T1 sequence: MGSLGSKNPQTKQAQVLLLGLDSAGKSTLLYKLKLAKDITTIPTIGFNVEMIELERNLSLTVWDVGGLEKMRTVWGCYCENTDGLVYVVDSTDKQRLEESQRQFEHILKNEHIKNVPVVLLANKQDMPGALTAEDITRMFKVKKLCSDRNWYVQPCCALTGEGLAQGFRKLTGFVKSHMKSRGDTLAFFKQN

T2: constitutively active ARL4D (Q80L)–BirA*–Flag (human) (UniProt P49703)
T2 sequence: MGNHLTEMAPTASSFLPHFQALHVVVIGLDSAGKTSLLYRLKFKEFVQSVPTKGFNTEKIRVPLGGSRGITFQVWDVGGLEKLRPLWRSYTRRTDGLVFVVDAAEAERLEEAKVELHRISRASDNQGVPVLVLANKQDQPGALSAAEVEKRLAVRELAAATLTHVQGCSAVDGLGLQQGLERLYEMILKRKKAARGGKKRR


Legend:
Assay in all cases: proximity labelling; BioID: constitutively active ARF/ARL bait with C-terminal BirA*–Flag, tetracycline-induced in Flp-In T-REx HEK293 and Flp-In T-REx HeLa cells, 50 µM biotin, 24 h labelling; RIPA lysis, streptavidin beads, on-bead trypsin, MS; SAINT AvgP ≥0.95 with AvgSpec and CAAX-ratio filters
[1] = molecular target: T1, constitutively active ARL14 (Q68L)–BirA*–Flag (human)
[2] = molecular target: constitutively active SAR1B–BirA*–Flag (human) (UniProt Q9Y6B6)
[3] = molecular target: constitutively active ARF1 (Q71L)–BirA*–Flag (human) (UniProt P84077)
[4] = molecular target: T2, constitutively active ARL4D (Q80L)–BirA*–Flag (human)

Molecule	binding [2]	binding [3]	further results
SNX1 (from UniProt Q13596 1-522)	–	–	binding [1]: binds
MIA3 (from UniProt Q5JRA6 23-1907)	binds	–	–
VTI1B (protein, UniProt Q9UEU0 1-232) MASSAASSEHFEKLHEIFRGLHEDLQGVPERLLGTAGTEEKKKLIRDFDEKQQEANETLAEMEEELRYAPLSFRNPMMSKLRNYRKDLAKLHREVRSTPLTATPGGRGDMKYGIYAVENEHMNRLQSQRAMLLQGTESLNRATQSIERSHRIATETDQIGSEIIEELGEQRDQLERTKSRLVNTSENLSKSRKILRSMSRKVTTNKLLLSIIILLELAILGGLVYYKFFRSH	–	binds	–
VPS50 (protein, UniProt Q96JG6 1-964) MQKIKSLMTRQGLKSPQESLSDLGAIESLRVPGKEEFRELREQPSDPQAEQELINSIEQVYFSVDSFDIVKYELEKLPPVLNLQELEAYRDKLKQQQAAVSKKVADLILEKQPAYVKELERVTSLQTGLQLAAVICTNGRRHLNIAKEGFTQASLGLLANQRKRQLLIGLLKSLRTIKTLQRTDVRLSEMLEEEDYPGAIQLCLECQKAASTFKHYSCISELNSKLQDTLEQIEEQLDVALSKICKNFDINHYTKVQQAYRLLGKTQTAMDQLHMHFTQAIHNTVFQVVLGYVELCAGNTDTKFQKLQYKDLCTHVTPDSYIPCLADLCKALWEVMLSYYRTMEWHEKHDNEDTASASEGSNMIGTEETNFDRGYIKKKLEHGLTRIWQDVQLKVKTYLLGTDLSIFKYDDFIFVLDIISRLMQVGEEFCGSKSEVLQESIRKQSVNYFKNYHRTRLDELRMFLENETWELCPVKSNFSILQLHEFKFMEQSRSPSVSPSKQPVSTSSKTVTLFEQYCSGGNPFEIQANHKDEETEDVLASNGYESDEQEKSAYQEYDSDSDVPEELKRDYVDEQTGDGPVKSVSRETLKSRKKSDYSLNKVNAPILTNTTLNVIRLVGKYMQMMNILKPIAFDVIHFMSQLFDYYLYAIYTFFGRNDSLESTGLGLSSSRLRTTLNRIQESLIDLEVSADPTATLTAAEERKEKVPSPHLSHLVVLTSGDTLYGLAERVVATESLVFLAEQFEFLQPHLDAVMPAVKKPFLQQFYSQTVSTASELRKPIYWIVAGKALDYEQMLLLMANVKWDVKEIMSQHNIYVDALLKEFEQFNRRLNEVSKRVRIPLPVSNILWEHCIRLANRTIVEGYANVKKCSNEGRALMQLDFQQFLMKLEKLTDIRPIPDKEFVETYIKAYYLTENDMERWIKEHREYSTKQLTNLVNVCLGSHINKKARQKLLAAIDDIDRPKR	–	binds	–
POP1 (protein, UniProt Q99575 1-1024) MSNAKERKHAKKMRNQPTNVTLSSGFVADRGVKHHSGGEKPFQAQKQEPHPGTSRQRQTRVNPHSLPDPEVNEQSSSKGMFRKKGGWKAGPEGTSQEIPKYITASTFAQARAAEISAMLKAVTQKSSNSLVFQTLPRHMRRRAMSHNVKRLPRRLQEIAQKEAEKAVHQKKEHSKNKCHKARRCHMNRTLEFNRRQKKNIWLETHIWHAKRFHMVKKWGYCLGERPTVKSHRACYRAMTNRCLLQDLSYYCCLELKGKEEEILKALSGMCNIDTGLTFAAVHCLSGKRQGSLVLYRVNKYPREMLGPVTFIWKSQRTPGDPSESRQLWIWLHPTLKQDILEEIKAACQCVEPIKSAVCIADPLPTPSQEKSQTELPDEKIGKKRKRKDDGENAKPIKKIIGDGTRDPCLPYSWISPTTGIIISDLTMEMNRFRLIGPLSHSILTEAIKAASVHTVGEDTEETPHRWWIETCKKPDSVSLHCRQEAIFELLGGITSPAEIPAGTILGLTVGDPRINLPQKKSKALPNPEKCQDNEKVRQLLLEGVPVECTHSFIWNQDICKSVTENKISDQDLNRMRSELLVPGSQLILGPHESKIPILLIQQPGKVTGEDRLGWGSGWDVLLPKGWGMAFWIPFIYRGVRVGGLKESAVHSQYKRSPNVPGDFPDCPAGMLFAEEQAKNLLEKYKRRPPAKRPNYVKLGTLAPFCCPWEQLTQDWESRVQAYEEPSVASSPNGKESDLRRSEVPCAPMPKKTHQPSDEVGTSIEHPREAEEVMDAGCQESAGPERITDQEASENHVAATGSHLCVLRSRKLLKQLSAWCGPSSEDSRGGRRAPGRGQQGLTREACLSILGHFPRALVWVSLSLLSKGSPEPHTMICVPAKEDFLQLHEDWHYCGPQESKHSDPFRSKILKQKEKKKREKRQKPGRASSDGPAGEEPVAGQEALTLGLWSGPLPRVTLHCSRTLLGFVTQGDFSMAVGCGEALGFVSLTGLLDMLSSQPAAQRGLVLLRPPASLQYRFARIAIEV	–	–	binding [4]: binds
BET1 (protein, UniProt O15155 1-118) MRRAGLGEGVPPGNYGNYGYANSGYSACEEENERLTESLRSKVTAIKSLSIEIGHEVKTQNKLLAEMDSQFDSTTGFLGKTMGKLKILSRGSQTKLLCYMMLFSLFVFFIIYWIIKLR	binds	–	–
phospholipase D1 (PLD1), endogenous (enzyme, UniProt Q13393 1-1074) MSLKNEPRVNTSALQKIAADMSNIIENLDTRELHFEGEEVDYDVSPSDPKIQEVYIPFSAIYNTQGFKEPNIQTYLSGCPIKAQVLEVERFTSTTRVPSINLYTIELTHGEFKWQVKRKFKHFQEFHRELLKYKAFIRIPIPTRRHTFRRQNVREEPREMPSLPRSSENMIREEQFLGRRKQLEDYLTKILKMPMYRNYHATTEFLDISQLSFIHDLGPKGIEGMIMKRSGGHRIPGLNCCGQGRACYRWSKRWLIVKDSFLLYMKPDSGAIAFVLLVDKEFKIKVGKKETETKYGIRIDNLSRTLILKCNSYRHARWWGGAIEEFIQKHGTNFLKDHRFGSYAAIQENALAKWYVNAKGYFEDVANAMEEANEEIFITDWWLSPEIFLKRPVVEGNRWRLDCILKRKAQQGVRIFIMLYKEVELALGINSEYTKRTLMRLHPNIKVMRHPDHVSSTVYLWAHHEKLVIIDQSVAFVGGIDLAYGRWDDNEHRLTDVGSVKRVTSGPSLGSLPPAAMESMESLRLKDKNEPVQNLPIQKSIDDVDSKLKGIGKPRKFSKFSLYKQLHRHHLHDADSISSIDSTSSYFNHYRSHHNLIHGLKPHFKLFHPSSESEQGLTRPHADTGSIRSLQTGVGELHGETRFWHGKDYCNFVFKDWVQLDKPFADFIDRYSTPRMPWHDIASAVHGKAARDVARHFIQRWNFTKIMKSKYRSLSYPFLLPKSQTTAHELRYQVPGSVHANVQLLRSAADWSAGIKYHEESIHAAYVHVIENSRHYIYIENQFFISCADDKVVFNKIGDAIAQRILKAHRENQKYRVYVVIPLLPGFEGDISTGGGNALQAIMHFNYRTMCRGENSILGQLKAELGNQWINYISFCGLRTHAELEGNLVTELIYVHSKLLIADDNTVIIGSANINDRSMLGKRDSEMAVIVQDTETVPSVMDGKEYQAGRFARGLRLQCFRVVLGYLDDPSEDIQDPVSDKFFKEVWVSTAARNATIYDKVFRCLPNDEVHNLIQLRDFINKPVLAKEDPIRAEEELKKIRGFLVQFPFYFLSEESLLPSVGTKEAIVPMEVWT	–	binds	binding [1]: binds
MIA2 (protein, UniProt Q96PC5 20-1412) LESTKLLADLKKCGDLECEALINRVSAMRDYRGPDCRYLNFTKGEEISVYVKLAGEREDLWAGSKGKEFGYFPRDAVQIEEVFISEEIQMSTKESDFLCLLGVSYTFDNEDSELNGDYGENIYPYEEDKDEKSSIYESDFQIEPGFYATYESTLFEDQVPALEAPEDIGSTSESKDWEEVVVESMEQDRIPEVHVPPSSAVSGVKEWFGLGGEQAEEKAFESVIEPVQESSFRSRKIAVEDENDLEELNNGEPQTEHQQESESEIDSVPKTQSELASESEHIPKPQSTGWFGGGFTSYLGFGDEDTGLELIAEESNPPLQDFPNSISSDKEATVPCTEILTEKKDTITNDSLSLKPSWFDFGFAILGFAYAKEDKIMLDDRKNEEDGGADEHEHPLTSELDPEKEQEIETIKIIETEDQIDKKPVSEKTDESDTIPYLKKFLYNFDNPWNFQNIPKETELPFPKQILDQNNVIENEETGEFSIDNYPTDNTKVMIFKSSYSLSDMVSNIELPTRIHEEVYFEPSSSKDSDENSKPSVDTEGPALVEIDRSVENTLLNSQMVSTDNSLSSQNYISQKEDASEFQILKYLFQIDVYDFMNSAFSPIVILTERVVAALPEGMRPDSNLYGFPWELVICAAVVGFFAVLFFLWRSFRSVRSRLYVGREKKLALMLSGLIEEKSKLLEKFSLVQKEYEGYEVESSLKDASFEKEATEAQSLEATCEKLNRSNSELEDEILCLEKELKEEKSKHSEQDELMADISKRIQSLEDESKSLKSQVAEAKMTFKIFQMNEERLKIAIKDALNENSQLQESQKQLLQEAEVWKEQVSELNKQKVTFEDSKVHAEQVLNDKESHIKTLTERLLKMKDWAAMLGEDITDDDNLELEMNSESENGAYLDNPPKGALKKLIHAAKLNASLKTLEGERNQIYIQLSEVDKTKEELTEHIKNLQTEQASLQSENTHFENENQKLQQKLKVMTELYQENEMKLHRKLTVEENYRLEKEEKLSKVDEKISHATEELETYRKRAKDLEEELERTIHSYQGQIISHEKKAHDNWLAARNAERNLNDLRKENAHNRQKLTETELKFELLEKDPYALDVPNTAFGREHSPYGPSPLGWPSSETRAFLSPPTLLEGPLRLSPLLPGGGGRGSRGPGNPLDHQITNERGESSCDRLTDPHRAPSDTGSLSPPWDQDRRMMFPPPGQSYPDSALPPQRQDRFCSNSGRLSGPAELRSFNMPSLDKMDGSMPSEMESSRNDTKDDLGNLNVPDSSLPAENEATGPGFVPPPLAPIRGPLFPVDARGPFLRRGPPFPPPPPGAMFGASRDYFPPGDFPGPPPAPFAMRNVYPPRGFPPYLPPRPGFFPPPPHSEGRSEFPSGLIPPSNEPATEHPEPQQET	binds	–	–

Results are given in words; binding and its absence hold for the method and conditions named. In cells and extracts the contact can be indirect. Here binding means that the protein was enriched with, or labelled near, the bait; the list need not be complete. For part of these data: Tags and fused reporters may be left off the sequences shown.
